PubChem BioAssay AID1224826 – NIAID, 2016

Aim: 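Genes that change LPS-induced Tnf promoter activity in mouse macrophages when knocked down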 (primary screen)
System: RAW264.7 G9 macrophages from mouse bearing reporters for p65 (GFP) and the Tnf promoter (mCherry)
Knock-down reagent: siRNA pool against mouse genes, 100 nM
Time to read-out: 16 h of LPS stimulation, after 2 days of siRNA transfection
Conditions: bacterial lipopolysaccharide (Salmonella minnesota R595), 10 ng/ml
Measurement: 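Imaged Tnf reporter mCherry in nuclei, minus background, normalised per plate to the median and expressed as robust z-scores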
Direction: Tnf reporter robust z-score: higher = stronger Tnf promoter reporter signal after LPS
Call rule: 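Called active when robust z-score is at most -1.3, matching the median of the Tlr4 knock-down control, or over 3; control wells and wells with under 50 cells never active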
Meaning of the calls: active = Tnf reporter clearly lowered or raised; inactive = no clear change in Tnf reporter
Here is an unselected part of about 17,000 reagents tested. Over the whole deposit, about 1,110 (6.6%) are marked active. 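Active means lowered or raised reporter signal; replicate intensities are raw and not normalised per plate.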 Reagents against one gene are numbered here. Further read-outs or replicates are left out here.

Or5p5 (olfactory receptor family 5 subfamily P member 5) | Tnf reporter robust z-score: 0.52; fewer than 50 cells in well: enough cells in well; Outcome: inactive
Zfp455 (zinc finger protein 455) | Tnf reporter robust z-score: 2.1; fewer than 50 cells in well: enough cells in well; Outcome: inactive
Fbxo16 (F-box protein 16) | Tnf reporter robust z-score: -1.19; fewer than 50 cells in well: enough cells in well; Outcome: inactive
Zfp263 (zinc finger protein 263) | Tnf reporter robust z-score: -1.05; fewer than 50 cells in well: enough cells in well; Outcome: inactive
Donson (downstream neighbor of SON) | fewer than 50 cells in well: fewer than 50 cells per well; well left out of calls; Outcome: inactive
Ifnb1 (interferon beta 1, fibroblast) | Tnf reporter robust z-score: -1.29; fewer than 50 cells in well: enough cells in well; Outcome: inactive
Tnfaip8l1 (tumor necrosis factor, alpha-induced protein 8-like 1) | Tnf reporter robust z-score: 3.04; fewer than 50 cells in well: enough cells in well; Outcome: active
Zswim3 (zinc finger SWIM-type containing 3) | Tnf reporter robust z-score: -1.71; fewer than 50 cells in well: enough cells in well; Outcome: active
Arsb (arylsulfatase B) #1 | Tnf reporter robust z-score: -1.25; fewer than 50 cells in well: enough cells in well; Outcome: inactive
Arsb (arylsulfatase B) #2 | Tnf reporter robust z-score: 1.26; fewer than 50 cells in well: enough cells in well; Outcome: inactive
Jmjd6 (jumonji domain containing 6) | Tnf reporter robust z-score: -0.47; fewer than 50 cells in well: enough cells in well; Outcome: inactive
Rpl35a (ribosomal protein L35A) | Tnf reporter robust z-score: -1.5; fewer than 50 cells in well: enough cells in well; Outcome: active

Records listed so far called active, once more:
Tnfaip8l1 (tumor necrosis factor, alpha-induced protein 8-like 1) | Tnf reporter robust z-score: 3.04; fewer than 50 cells in well: enough cells in well; Outcome: active
Zswim3 (zinc finger SWIM-type containing 3) | Tnf reporter robust z-score: -1.71; fewer than 50 cells in well: enough cells in well; Outcome: active
Rpl35a (ribosomal protein L35A) | Tnf reporter robust z-score: -1.5; fewer than 50 cells in well: enough cells in well; Outcome: active
